Assay results from patent US20220168400A1, “USE OF A MANGANESE SUPEROXIDE DISMUTASE WITH HIGH STABILITY IN THE PREVENTION OR TREATMENT OF CEREBRAL STROKE” (CARRY HEALTH BIOPHARMACEUTICALS (HANGZHOU) CO., LTD., priority 2019, published 2022).

Test system: occludin, claudin-4, ZO-1 (intestinal tight junction proteins)
Test: Western blot of intestinal tight junction proteins in MCAO mice
Assay type: in vivo
Procedure: Intestinal tissue of each mouse in each group was obtained and frozen. The frozen intestinal tissue was homogenized in a mammalian tissue lysis buffer on ice, and centrifuged at 1,4000 rpm for 15 minutes to isolate proteins. Protein concentration was determined using the BCA method. An equal amount of each intestinal tissue homogenate sample was loaded onto 12% SDS-PAGE and transferred to a polyvinylidene fluoride membrane (Millipore Corporation, Bedford, Mass., USA). The membrane was blocked with 5% skimmed milk in TBST buffer at room temperature for 60 minutes, and then incubated with the primary antibodies against occludin, claudin-4, and ZO-1 (Zona occludens 1) overnight at 4° C. The membrane was then incubated with the appropriate secondary antibody conjugated with horseradish peroxidase (Santa Cruz Biotechnology Inc, Santa Cruz, Canada) for 1 hour at 37° C., the signal was visualized using an enhanced chemiluminescence (ECL) detection system (Amersham), and the intensity of spectral band was determined by ImageJ software.

B1: MS-SOD: manganese superoxide dismutase with high stability, gene from Thermus thermophilus HB27 expressed in E. coli; amino acid sequence SEQ ID NO: 4 (protein)
chain: MPYPFKLPDLGYPYEALEPHIDAKTMEIHHQKHHGAYVTNLNAALEKYPYLHGVEVEVLLRHLAALPQDIQTAVRNNGGGHLNHSLFWRLLTPGGAKEPVGELKKAIDEQFGGFQALKEKLTQAAMGRFGSGWAWLVKDPFGKLHVLSTPNQDNPVMEGFTPIVGIDVWEHAYYLKYQNRRADYLQAIWNVLNWDVAEEFFKKA
modifications: Amino acid sequence for MS-SOD
MS-SOD1 group vs control group, T test P=0.018
  expression of cecal occludin: lower than that of the control group
MS-SOD1 group, cecum, compared with control group
  expression levels of intestinal tight junction proteins: decreased
